Experiments:
[1] = Body composition and blood biochemistry, rats on high-protein diet, 24 d oral HB (Protocol 2); format: in vivo, rat; settings: for Glucose: fasted; for Cholesterol / Insulin / Triglycerides: plasma
Experimental: (§1) Six-week-old male Wistar rats (180-220 g, Charles River Laboratories, MA) were housed in individual chambers in a room maintained at a constant room temperature with 12 h light-dark cycle. Animals had free access to food and water. Animals were allowed to adapt to new conditions for 7 d and handling the animals was carried out daily during this time to reduce the stress of physical manipulation. Animals were randomized into groups according to bodyweight 1 d prior to dosing.
Protocol 2: Three groups of Wistar rats (n=8), fed a high-protein diet containing 39.4% protein, 10.0% fat, 4.3% fiber, and 37.0% carbohydrates, resulting in 3.93 kcal/g energy value (#5779 diet, Testdiet/Purina, Richmond, Ind.), were gavaged daily for 24 d with 1 ml of vehicle (5% DMSO in corn oil), 20 or 60 mg/kg HB. All procedures and measurements followed protocol 1.
(§2) Blood samples were taken from overnight-fasted animals by heart puncture, collected in EDTA-coated tubes, centrifuged 1,500 g for 20 min, and separated plasma was stored at −80° C. until analysis. Glucose was measured in blood samples using a Lifescan glucometer (Johnson and Johnson, New Brunswick, N.J.). […] Plasma triglycerides and total cholesterol were measured by enzymatic colorimetric assays (Wako Diagnostics, Richmond, Va.). Total testosterone in plasma samples was quantified by an ELISA assay (DRG Diagnostics, Marburg, Germany).

[2] = Body composition and blood biochemistry, rats on normal diet, 24 d oral HB (Protocol 1); format: in vivo, rat; settings: for Glucose: fasted; for Cholesterol / Insulin: plasma
Experimental: as §1
The body weight of each animal and the total amount of food consumed (accounted for spillage) were recorded every 2 d for the duration of the experiment. At the end of the experiment, blood was collected by heart puncture after CO2 inhalation and animal body composition was assessed by DEXA dual-energy X-ray absorptiometry analysis using a Lunar Prodigy Densitometer (GE Healthcare, Waukesha, Wis.). At necropsy, tissue weights were recorded. Tissue samples were collected by snap-freezing in liquid nitrogen and stored at −80° C. for further studies. Total RNA was isolated using Trizol, its quantity and purity were determined using a NanoDrop (Nanodrop Technologies, Wilmington, Del.).
as §2

CC[C@@H](C(C)C)[C@H](O)[C@@H](O)[C@@H](C)[C@H]1CC[C@H]2[C@@H]3COC(=O)[C@H]4C[C@H](O)[C@H](O)C[C@]4(C)[C@H]3CC[C@]12C [Compound 1, (22S,23S,24S)-2α,3α,22,23-tetrahydroxy-24 ethyl-β-homo-7-oxo-5α-cholestane-6-one]
Glucose ([1]; 20 mg/kg oral daily 24 d): 5.1 ± 0.2 mM | Cholesterol ([1]; 20 mg/kg oral daily 24 d): 97.5 ± 6.0 mg/dL | Insulin ([1]; 20 mg/kg oral daily 24 d): 2.39 ± 0.34 ng/mL | Triglycerides ([1]; 20 mg/kg oral daily 24 d): 1.2 ± 0.1 mM | Glucose ([1]; 60 mg/kg oral daily 24 d): 4.8 ± 0.2 mM | Cholesterol ([1]; 60 mg/kg oral daily 24 d): 87.4 ± 2.9 mg/dL | Insulin ([1]; 60 mg/kg oral daily 24 d): 2.38 ± 0.41 ng/mL | Triglycerides ([1]; 60 mg/kg oral daily 24 d): 1.3 ± 0.1 mM | total daily food intake ([2]; 20 mg/kg oral daily 24 d): 22.2 ± 0.8 g | Glucose ([2]; 20 mg/kg oral daily 24 d): 5.1 ± 0.5 mM | Cholesterol ([2]; 20 mg/kg oral daily 24 d): 69.9 ± 6.0 mg/dL | Insulin ([2]; 20 mg/kg oral daily 24 d): 2.39 ± 0.58 ng/mL | total daily food intake ([2]; 60 mg/kg oral daily 24 d): 23.6 ± 0.5 g | Glucose ([2]; 60 mg/kg oral daily 24 d, listed as HB, 60 mg/kg): 4.5 ± 0.3 mM | Cholesterol ([2]; 60 mg/kg oral daily 24 d): 84.2 ± 5.3 mg/dL | Insulin ([2]; 60 mg/kg oral daily 24 d): 2.65 ± 0.45 ng/mL
